Measured values published in PubChem BioAssay AID540303 (National Center for Advancing Translational Sciences (NCATS), 2011).
The campaign covered roughly 330,000 compounds. About 1,000 (0.3%) were called active. Inconclusive results, whose numbers are uncertain, are shown with a selection of clear calls. Calls follow the shape of the dose curve; as a rule, active = well fitted inhibition curve with a large enough effect; inconclusive = small, poorly fitted or top-dose-only effect; inactive = no such curve, though single readings can be large or run the other way; tested in mouse RAW 264.7 cells. Potencies beside an inconclusive call are fits to weak or partial responses and may not hold up.

experiment: qHTS for Inhibitors of Cell Surface uPA Generation; conditions: cell surface uPA generation assay; series mostly up to 38.3 µM; also: nearly all actives have a fitted effect of over 55% in size
Summary of the method: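 Using RAW 264.7 macrophages, the screen measures whether compounds keep cellular ATP up by preventing uPA-driven LF translocation. Treatment lasted 24 h at 37 C, with a final top concentration of 38.3 uM, and luminescence was the readout.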
Potency is read from the fitted curve at half-maximal effect.

Question: With `O=c1c2ccccc2[nH]c(=S)n1CCCN1CCN(c2ccccc2F)CC1` as the molecule, how does the Potency read?
Answer: Its Potency is inconclusive: 1 µM [inhibitor, full curve, poor fit].

Question: With `O=C(O)c1ccc(NC(=O)c2cc3ccccc3o2)cc1` as the molecule, how does the Potency read?
Answer: Its Potency is inconclusive: 5.62 µM [inhibitor, partial curve, poor fit].

Question: Which Potency does the source give for `CCCOc1ccc(-c2c(C(=O)N/N=C/c3cccs3)nnn2-c2nonc2N)cc1` here?
Answer: The Potency was “inactive”.

Question: With `Cc1ccc(CNC(=O)C2CCN(S(=O)(=O)c3c(C)noc3/C=C/c3ccco3)CC2)cc1` as the molecule, how does the Potency read?
Answer: Its Potency is inconclusive: 12.6 µM [inhibitor, single point].

Question: For `CN1CCN(c2ccc(S(=O)(=O)N3CCCCC3)cc2NC(=O)Cc2c(F)cccc2Cl)CC1`, which Potency is on record?
Answer: Its Potency is inconclusive: 3.16 µM [inhibitor, partial curve, poor fit].

Question: With `S=C(N/N=C/c1ccc2ncccc2c1)Nc1ccccc1` as the molecule, how does the Potency read?
Answer: Its Potency is inconclusive: 3.55 µM [inhibitor, full curve, poor fit].

Question: Which Potency does the source give for `Cc1ccn2c(NC3CCCCC3)c(-c3cccc(SC4CCCCC4)c3)nc2c1` here?
Answer: The Potency was “inactive”.

Question: Which Potency does the source give for `COc1cc(OC)cc(-c2c(-c3cccs3)c3cc(-c4ccn[nH]4)ccc3n2C)c1` here?
Answer: The Potency was “inactive”.

Question: With `COc1cc(Cl)ccc1OCc1cc(C(=O)NC(C)Cc2cccnc2)no1` (centres undefined) as the molecule, how does the Potency read?
Answer: The Potency was inconclusive: 5.01 µM [inhibitor, partial curve, poor fit].

Question: Which Potency does the source give for `CC1CCc2nc(NC(=O)CN3CCN(Cc4ccc5c(c4)OCO5)CC3)sc2C1` (centres undefined) here?
Answer: The Potency was “inactive”.

Question: Which Potency does the source give for `COc1ccc([C@H]2CC(=O)C=C(c3ccc(OC)cc3OC)C2)cc1` here?
Answer: The Potency was inconclusive: 0.447 µM [inhibitor, full curve, poor fit].

Question: For `CC(C)CN(C(=O)CN1CCN(c2ccc(O)cc2)CC1)c1c(N)n(CC(C)C)c(=O)[nH]c1=O`, which Potency is on record?
Answer: Its Potency is “inactive”.

Question: For `CCc1ccc(NS(=O)(=O)c2cc(OC)ccc2OC)cc1`, which Potency is on record?
Answer: Its Potency is inconclusive: 10 µM [inhibitor, partial curve, poor fit].

Question: Which Potency does the source give for `COc1ccc(C(=O)C23CC4CC(C2)CC(C(=O)c2ccc(OC)cc2)(C4)C3)cc1` here?
Answer: The Potency was “inactive”.

Question: For `COc1cccc(Oc2cn[nH]c2-c2ccc(OC)cc2O)c1`, which Potency is on record?
Answer: Its Potency is “inactive”.

Question: Which Potency does the source give for `CC(=O)Nc1ccc(NC(=O)CSc2nnc(N)n2-c2ccccc2)cc1` here?
Answer: The Potency was “inactive”.

Question: For `COc1ccc([C@H]2CC(=O)C=C(c3cc(F)ccc3OC)C2)cc1`, which Potency is on record?
Answer: Its Potency is inconclusive: 12.6 µM [inhibitor, partial curve, poor fit].

Question: Which Potency does the source give for `COc1cccc(CCc2nnc(CCC(=O)N3CCCC3c3nccs3)o2)c1` (centres undefined) here?
Answer: Its Potency is inconclusive: 0.708 µM [inhibitor, full curve].

Question: For `CCOc1ccc2cc(C3CC(c4ccco4)=NN3S(C)(=O)=O)c(=O)[nH]c2c1` (centres undefined), which Potency is on record?
Answer: Its Potency is “inactive”.

Question: With `CCOC(=O)N1CCN(C(=O)c2cc3c(s2)-c2ccc(Cl)cc2S(=O)(=O)C3)CC1` as the molecule, how does the Potency read?
Answer: Its Potency is inconclusive: 8.91 µM [inhibitor, partial curve, poor fit].

Question: With `COc1cccc(/C=C/c2nc(C#N)c(NCC(C)C)o2)c1` as the molecule, how does the Potency read?
Answer: Its Potency is inconclusive: 5.62 µM [inhibitor, partial curve, poor fit].

Question: With `Cc1cc(C)cc(N/C(N)=N/c2nc(C)cc(C)n2)c1` as the molecule, how does the Potency read?
Answer: The Potency was inconclusive: 28.2 µM [inhibitor, single point].

Question: Which Potency does the source give for `O=[N+]([O-])c1ccc(Cl)cc1Sc1nc2ccccc2o1` here?
Answer: The Potency was inconclusive: 8.91 µM [inhibitor, single point].

Question: With `O=S(=O)(c1cnc(Cl)c(Cl)c1)N1CCc2ccccc21` as the molecule, how does the Potency read?
Answer: The Potency was inconclusive: 6.31 µM [inhibitor, partial curve, poor fit].

Question: Which Potency does the source give for `CCN(CC)C(=O)[C@H]1C[C@H](CC(=O)NCCC2=CCCCC2)C(=O)N2CCc3c([nH]c4ccc(Cl)cc34)[C@]12C` here?
Answer: The Potency was inconclusive: 31.6 µM [inhibitor, single point].

Question: For `COc1ccc(CN(C)C(=O)Cn2ccc(NC(=O)OCc3ccccc3)nc2=O)cc1OC`, which Potency is on record?
Answer: The Potency was inconclusive: 4.47 µM [inhibitor, partial curve, poor fit].

Question: For `CCOCCn1c(CN2CCN(CC)CC2)nc2c1c(=O)n(C)c(=O)n2C`, which Potency is on record?
Answer: The Potency was inconclusive: 7.94 µM [inhibitor, partial curve, poor fit].

Question: With `COCC(C)n1c(C)cc(C(=O)COC(=O)c2ccc3c(c2)NC(=O)CS3)c1C` (centres undefined) as the molecule, how does the Potency read?
Answer: The Potency was inconclusive: 3.16 µM [inhibitor, partial curve, poor fit].

Question: Which Potency does the source give for `CC1=CC(=O)C(C(C)C)=C/C1=C(\c1cc(C(C)C)c(OP(=O)(O)O)cc1C)c1ccccc1C(=O)O` here?
Answer: The Potency was “inactive”.

Question: For `Cc1ccc[n+](CC(=O)Nc2ccc([N+](=O)[O-])cc2)c1`, which Potency is on record?
Answer: The Potency was inconclusive: 25.1 µM [inhibitor, partial curve, poor fit].

Question: Which Potency does the source give for `CCCc1cc(=O)[nH]c(SCC(=O)Nc2sc(C(N)=O)c(C)c2C(=O)OCCOC)n1` here?
Answer: The Potency was inconclusive: 12.6 µM [inhibitor, single point].

Question: Which Potency does the source give for `Cc1cc2nc(C3CCN(C(=S)NCCCOC(C)C)CC3)[nH]c2cc1C` here?
Answer: The Potency was inconclusive: 5.62 µM [inhibitor, single point].

Question: For `CCOC(=O)[C@@H]1[C@H]2COc3cc(OC)ccc3[C@H]2N2C(=O)N(c3ccc(C(F)(F)F)cc3)C(=O)[C@]12C`, which Potency is on record?
Answer: The Potency was inconclusive: 12.6 µM [inhibitor, partial curve, poor fit].

Question: With `O=C(NCCN1CCOCC1)c1cc(-c2cccs2)on1` as the molecule, how does the Potency read?
Answer: The Potency was inconclusive: 3.55 µM [inhibitor, full curve, poor fit].

Question: For `CC(C)n1cnc2c(Nc3cccc(Cl)c3)nc(N(CCO)CCCO)nc21`, which Potency is on record?
Answer: Its Potency is inconclusive: 8.91 µM [inhibitor, partial curve, poor fit].

Question: For `NC(=S)N/N=C/c1cccc(O)c1O`, which Potency is on record?
Answer: Its Potency is “inactive”.

Question: With `COc1cccc(-c2nn(-c3ccccc3)cc2CN(C)Cc2c(C)nc3ccccn23)c1` as the molecule, how does the Potency read?
Answer: Its Potency is “inactive”.

Question: With `COC(=O)C1=C(C)N(c2cccc(OC)c2)C(=O)/C1=C\c1ccco1` as the molecule, how does the Potency read?
Answer: The Potency was “inactive”.

Question: Which Potency does the source give for `O=C1NC[C@H](c2ccccc2)OC(=O)[C@@H](Cc2ccc(F)cc2)C/C=C\C[C@H]1CC(=O)N(CCO)Cc1ccccc1` here?
Answer: The Potency was inconclusive: 10 µM [inhibitor, single point].

Question: With `CN(Cc1ccccc1)S(=O)(=O)c1ccc(N2CCCC2=O)cc1` as the molecule, how does the Potency read?
Answer: Its Potency is inconclusive: 0.0079 µM [inhibitor, full curve, poor fit].

Question: For `CO/N=C\CC(=O)Nc1ccc(Cl)c(Cl)c1`, which Potency is on record?
Answer: Its Potency is “inactive”.

Question: Which Potency does the source give for `Cc1cc(SCc2ccc(Cl)cc2Cl)nc(=O)[nH]1` here?
Answer: The Potency was inconclusive: 6.31 µM [inhibitor, single point].

Question: With `O=C(Nc1ccccc1F)n1ncc2cc(Cl)ccc21` as the molecule, how does the Potency read?
Answer: Its Potency is “inactive”.

Question: With `CCCc1cc(=O)[nH]c2nnc(SCC(=O)Nc3cccc(NC(C)=O)c3)n12` as the molecule, how does the Potency read?
Answer: The Potency was inconclusive: 0.0158 µM [inhibitor, full curve, poor fit].

Question: For `CC1CCc2sc(C(=O)Nc3ccc(N4CCOCC4)cc3)cc2C1` (centres undefined), which Potency is on record?
Answer: Its Potency is inconclusive: 28.2 µM [inhibitor, single point].

Question: With `COc1ccccc1-c1nnc(NC(=O)c2ccc(S(=O)(=O)N3CCCC3)cc2)o1` as the molecule, how does the Potency read?
Answer: Its Potency is inconclusive: 4.47 µM [inhibitor, partial curve].

Question: With `CCCCN(C)CCNC(=O)CN1C(=O)CSc2ccc(S(=O)(=O)N3CCCCC3)cc21` as the molecule, how does the Potency read?
Answer: Its Potency is “inactive”.

Question: Which Potency does the source give for `Nc1ccc2oc(-c3ccccc3Cl)cc(=O)c2c1O` here?
Answer: The Potency was inconclusive: 5.62 µM [inhibitor, partial curve].

Question: For `Cc1cc(C)c(C(=O)CN2C(=O)C(=O)N(C3CCCC3)C2=O)cc1C`, which Potency is on record?
Answer: The Potency was “inactive”.

Question: With `C[C@]12c3[nH]c4cc(-c5ccco5)ccc4c3CCN1C(=O)[C@@H](CC(=O)NCCC1=CCCCC1)C[C@@H]2C(=O)N1CCCCC1` as the molecule, how does the Potency read?
Answer: Its Potency is inconclusive: 28.2 µM [inhibitor, single point].

Question: With `CCCS(=O)(=O)c1nnnn1-c1cccc(OC)c1` as the molecule, how does the Potency read?
Answer: Its Potency is inconclusive: 2.51 µM [inhibitor, partial curve].

Question: For `Cc1nn(C)c(=O)c(N)c1-c1cc(-c2ccc(Cl)c(Cl)c2)n[nH]1`, which Potency is on record?
Answer: Its Potency is “inactive”.

Question: For `Oc1cc(-c2cccnc2)cc2cccnc12`, which Potency is on record?
Answer: Its Potency is inconclusive: 12.6 µM [inhibitor, single point].

Question: For `c1ccc(-n2nnnc2NC2CCCCCC2)cc1`, which Potency is on record?
Answer: Its Potency is inconclusive: 0.0158 µM [inhibitor, full curve, poor fit].

Question: Which Potency does the source give for `O=C(c1cnn2ccccc12)N(Cc1ccco1)C1CCCC1` here?
Answer: Its Potency is inconclusive: 4.47 µM [inhibitor, partial curve].

Question: With `COc1ccc(C2c3c(ncn(CCCN4CCOCC4)c3=N)Oc3ccc4ccccc4c32)cc1OC` (centres undefined) as the molecule, how does the Potency read?
Answer: Its Potency is inconclusive: 5.62 µM [inhibitor, partial curve, poor fit].

Question: With `Cc1cc(C)c2c(c1)cc(C)c1nnc(SCC(=O)Nc3cc(C)on3)n12` as the molecule, how does the Potency read?
Answer: Its Potency is inconclusive: 11.2 µM [inhibitor, single point].

Question: Which Potency does the source give for `N#CCC(=O)N/N=C\c1ccccc1OC/C=C/c1ccccc1` here?
Answer: The Potency was inconclusive: 8.91 µM [inhibitor, partial curve, poor fit].

Question: For `Cc1ccc(NC(=O)Cn2c(=O)c3cccn3c3ccccc32)c(Cl)c1`, which Potency is on record?
Answer: Its Potency is “inactive”.

Question: With `Cc1nn(-c2ccccc2)c(Cl)c1/C=N/Nc1nc2ccccc2n1C` as the molecule, how does the Potency read?
Answer: The Potency was inconclusive: 7.94 µM [inhibitor, partial curve, poor fit].

Question: Which Potency does the source give for `O=C(C[C@@H]1C/C=C\CCC(=O)OC[C@@H]2CCCN2C1=O)NCCO` here?
Answer: The Potency was inconclusive: 25.1 µM [inhibitor, partial curve, poor fit].

Question: Which Potency does the source give for `CC(C)Oc1ccc(C(=O)Nc2ccc(S(=O)(=O)N3CCN(C)CC3)cc2)cc1` here?
Answer: Its Potency is inconclusive: 11.2 µM [inhibitor, single point].

Question: For `c1cc2c(cc1-c1[nH]ncc1CN1C[C@H]3CC[C@H]1C3)OCO2`, which Potency is on record?
Answer: The Potency was “inactive”.

Question: With `Cc1ccc(NC(=O)CSc2nnc(CSc3nc(C)cc(C)n3)n2Cc2ccco2)c(C)c1` as the molecule, how does the Potency read?
Answer: The Potency was “inactive”.
